Measurements published in the supplement of paper PMC10849652.
This is one part of the list.

By UniProt entry, the sequences of proteins in these tests, tags left out. Where a name states a change or a piece, a line headed by the entry shows the natural chain unless it says otherwise.
UniProt Q58FF7, whole entry, looked up: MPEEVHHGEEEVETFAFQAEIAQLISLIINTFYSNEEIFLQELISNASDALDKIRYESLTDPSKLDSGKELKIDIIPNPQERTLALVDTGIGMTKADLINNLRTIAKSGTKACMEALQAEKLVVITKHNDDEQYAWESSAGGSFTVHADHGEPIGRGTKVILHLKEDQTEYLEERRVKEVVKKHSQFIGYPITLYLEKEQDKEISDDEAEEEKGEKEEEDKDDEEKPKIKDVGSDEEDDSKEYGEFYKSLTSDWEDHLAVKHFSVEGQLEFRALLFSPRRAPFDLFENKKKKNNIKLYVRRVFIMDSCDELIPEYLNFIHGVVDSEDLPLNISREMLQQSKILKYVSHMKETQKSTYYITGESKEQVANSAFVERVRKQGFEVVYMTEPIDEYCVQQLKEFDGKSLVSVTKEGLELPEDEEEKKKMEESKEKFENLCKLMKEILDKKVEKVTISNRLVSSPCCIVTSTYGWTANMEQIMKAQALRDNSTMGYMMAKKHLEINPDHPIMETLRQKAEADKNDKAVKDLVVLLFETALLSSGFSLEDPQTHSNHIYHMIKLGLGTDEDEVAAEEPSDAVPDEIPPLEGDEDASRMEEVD
UniProt P00492: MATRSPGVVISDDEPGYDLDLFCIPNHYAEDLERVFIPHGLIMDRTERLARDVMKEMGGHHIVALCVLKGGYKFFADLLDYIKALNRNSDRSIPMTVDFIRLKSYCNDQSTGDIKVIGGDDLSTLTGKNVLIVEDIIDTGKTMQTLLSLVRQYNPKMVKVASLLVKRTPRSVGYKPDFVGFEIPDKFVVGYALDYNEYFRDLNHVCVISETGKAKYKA
UniProt Q5GLZ8: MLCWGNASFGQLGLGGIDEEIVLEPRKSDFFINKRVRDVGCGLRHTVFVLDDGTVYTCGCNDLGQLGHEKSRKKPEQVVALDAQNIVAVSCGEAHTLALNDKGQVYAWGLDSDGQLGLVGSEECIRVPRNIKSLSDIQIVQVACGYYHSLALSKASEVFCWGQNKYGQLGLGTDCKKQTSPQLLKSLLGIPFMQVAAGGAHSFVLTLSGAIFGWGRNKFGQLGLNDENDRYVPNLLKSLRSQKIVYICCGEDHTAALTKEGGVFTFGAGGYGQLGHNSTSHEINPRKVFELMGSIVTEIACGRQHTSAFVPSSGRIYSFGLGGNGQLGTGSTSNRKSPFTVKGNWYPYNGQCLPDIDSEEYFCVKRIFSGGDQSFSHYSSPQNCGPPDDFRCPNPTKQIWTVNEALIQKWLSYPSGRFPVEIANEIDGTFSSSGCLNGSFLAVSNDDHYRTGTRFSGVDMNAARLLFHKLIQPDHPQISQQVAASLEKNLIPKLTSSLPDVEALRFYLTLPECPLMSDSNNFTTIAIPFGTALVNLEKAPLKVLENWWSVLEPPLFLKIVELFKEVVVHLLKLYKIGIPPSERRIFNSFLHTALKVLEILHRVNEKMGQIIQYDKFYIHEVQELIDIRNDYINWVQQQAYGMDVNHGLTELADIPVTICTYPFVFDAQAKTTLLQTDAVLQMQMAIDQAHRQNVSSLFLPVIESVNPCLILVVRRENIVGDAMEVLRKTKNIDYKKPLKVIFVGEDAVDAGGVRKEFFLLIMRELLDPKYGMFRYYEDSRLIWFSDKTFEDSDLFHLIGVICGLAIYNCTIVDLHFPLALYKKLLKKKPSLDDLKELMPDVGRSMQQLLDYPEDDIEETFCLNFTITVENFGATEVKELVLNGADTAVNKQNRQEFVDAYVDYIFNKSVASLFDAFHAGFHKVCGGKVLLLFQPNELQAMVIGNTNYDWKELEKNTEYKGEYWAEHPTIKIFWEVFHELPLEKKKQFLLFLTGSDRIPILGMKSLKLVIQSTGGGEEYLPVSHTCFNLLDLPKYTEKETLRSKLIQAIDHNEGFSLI
UniProt Q8IX15: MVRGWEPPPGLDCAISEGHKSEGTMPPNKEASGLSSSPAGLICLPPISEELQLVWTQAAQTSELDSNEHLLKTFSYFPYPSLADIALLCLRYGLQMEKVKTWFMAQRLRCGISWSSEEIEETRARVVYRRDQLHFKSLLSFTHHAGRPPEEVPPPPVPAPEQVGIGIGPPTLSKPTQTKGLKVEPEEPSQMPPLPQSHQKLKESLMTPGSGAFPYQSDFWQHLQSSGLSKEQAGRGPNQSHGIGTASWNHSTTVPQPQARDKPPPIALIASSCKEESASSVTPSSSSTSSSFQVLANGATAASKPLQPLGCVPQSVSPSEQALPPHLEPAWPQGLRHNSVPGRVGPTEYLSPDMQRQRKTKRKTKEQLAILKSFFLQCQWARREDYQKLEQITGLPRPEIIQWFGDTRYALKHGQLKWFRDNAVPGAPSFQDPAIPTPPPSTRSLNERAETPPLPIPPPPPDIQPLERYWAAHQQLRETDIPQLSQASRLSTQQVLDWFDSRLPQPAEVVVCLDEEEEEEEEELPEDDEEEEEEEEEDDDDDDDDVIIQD
UniProt Q01581: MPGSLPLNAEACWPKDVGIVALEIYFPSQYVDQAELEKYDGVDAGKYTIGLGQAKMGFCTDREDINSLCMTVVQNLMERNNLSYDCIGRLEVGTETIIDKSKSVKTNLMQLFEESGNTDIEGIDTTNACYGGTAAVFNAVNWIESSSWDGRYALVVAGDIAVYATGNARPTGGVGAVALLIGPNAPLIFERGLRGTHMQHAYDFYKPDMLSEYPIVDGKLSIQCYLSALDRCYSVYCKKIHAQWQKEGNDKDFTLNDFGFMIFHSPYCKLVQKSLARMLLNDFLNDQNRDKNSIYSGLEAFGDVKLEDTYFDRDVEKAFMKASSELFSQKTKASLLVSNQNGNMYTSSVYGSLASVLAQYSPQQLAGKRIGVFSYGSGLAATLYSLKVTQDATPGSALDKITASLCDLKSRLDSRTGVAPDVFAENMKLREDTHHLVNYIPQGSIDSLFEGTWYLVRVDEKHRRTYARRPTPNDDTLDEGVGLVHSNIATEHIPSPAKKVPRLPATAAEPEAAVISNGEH
UniProt O43390: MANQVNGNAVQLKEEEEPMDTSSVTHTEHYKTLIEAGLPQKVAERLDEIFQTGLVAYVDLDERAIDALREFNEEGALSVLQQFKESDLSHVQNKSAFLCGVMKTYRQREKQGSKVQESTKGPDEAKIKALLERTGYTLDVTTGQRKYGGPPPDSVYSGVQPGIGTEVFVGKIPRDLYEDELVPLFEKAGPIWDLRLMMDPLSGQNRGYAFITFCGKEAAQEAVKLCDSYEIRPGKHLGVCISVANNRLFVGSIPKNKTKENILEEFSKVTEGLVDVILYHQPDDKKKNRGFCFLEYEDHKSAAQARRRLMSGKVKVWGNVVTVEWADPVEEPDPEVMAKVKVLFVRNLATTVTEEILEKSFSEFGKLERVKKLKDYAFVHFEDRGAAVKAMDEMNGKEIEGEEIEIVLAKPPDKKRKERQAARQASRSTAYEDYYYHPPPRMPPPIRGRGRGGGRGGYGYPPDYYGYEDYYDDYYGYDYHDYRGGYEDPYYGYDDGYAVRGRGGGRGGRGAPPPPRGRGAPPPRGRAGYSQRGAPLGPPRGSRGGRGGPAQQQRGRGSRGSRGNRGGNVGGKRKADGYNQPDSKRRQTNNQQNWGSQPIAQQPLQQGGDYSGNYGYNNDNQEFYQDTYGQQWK
UniProt P54652, whole entry, looked up: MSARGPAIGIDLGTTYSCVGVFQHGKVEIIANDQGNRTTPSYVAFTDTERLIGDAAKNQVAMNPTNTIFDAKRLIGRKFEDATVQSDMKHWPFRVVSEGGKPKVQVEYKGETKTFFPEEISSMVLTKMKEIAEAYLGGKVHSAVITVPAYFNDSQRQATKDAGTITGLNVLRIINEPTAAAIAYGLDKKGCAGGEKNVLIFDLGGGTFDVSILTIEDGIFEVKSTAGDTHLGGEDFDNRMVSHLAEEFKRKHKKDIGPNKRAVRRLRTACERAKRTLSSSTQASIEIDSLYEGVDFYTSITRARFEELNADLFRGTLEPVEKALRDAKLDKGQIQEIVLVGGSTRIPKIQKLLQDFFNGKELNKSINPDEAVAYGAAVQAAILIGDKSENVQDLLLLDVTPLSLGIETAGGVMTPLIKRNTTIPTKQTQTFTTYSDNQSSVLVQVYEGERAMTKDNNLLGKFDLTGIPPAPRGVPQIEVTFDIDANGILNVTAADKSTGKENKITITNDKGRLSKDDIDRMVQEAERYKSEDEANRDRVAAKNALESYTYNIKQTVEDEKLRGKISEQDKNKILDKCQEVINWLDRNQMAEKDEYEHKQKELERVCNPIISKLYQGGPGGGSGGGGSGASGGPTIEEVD
UniProt Q9NQE9: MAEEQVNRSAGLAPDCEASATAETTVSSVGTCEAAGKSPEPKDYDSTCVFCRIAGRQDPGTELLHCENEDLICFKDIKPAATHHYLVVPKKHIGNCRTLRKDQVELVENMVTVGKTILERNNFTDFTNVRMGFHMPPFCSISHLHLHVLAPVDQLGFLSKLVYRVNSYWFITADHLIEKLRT
UniProt P35914: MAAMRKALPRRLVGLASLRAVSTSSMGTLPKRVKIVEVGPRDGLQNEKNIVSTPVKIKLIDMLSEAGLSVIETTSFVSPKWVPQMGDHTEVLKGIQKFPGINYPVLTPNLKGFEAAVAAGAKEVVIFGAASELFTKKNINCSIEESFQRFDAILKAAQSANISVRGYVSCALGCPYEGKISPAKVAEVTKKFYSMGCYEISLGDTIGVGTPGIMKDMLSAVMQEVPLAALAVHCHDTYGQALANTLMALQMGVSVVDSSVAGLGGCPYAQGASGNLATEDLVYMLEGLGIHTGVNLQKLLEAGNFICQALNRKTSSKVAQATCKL
UniProt P0DMV8, whole entry, looked up: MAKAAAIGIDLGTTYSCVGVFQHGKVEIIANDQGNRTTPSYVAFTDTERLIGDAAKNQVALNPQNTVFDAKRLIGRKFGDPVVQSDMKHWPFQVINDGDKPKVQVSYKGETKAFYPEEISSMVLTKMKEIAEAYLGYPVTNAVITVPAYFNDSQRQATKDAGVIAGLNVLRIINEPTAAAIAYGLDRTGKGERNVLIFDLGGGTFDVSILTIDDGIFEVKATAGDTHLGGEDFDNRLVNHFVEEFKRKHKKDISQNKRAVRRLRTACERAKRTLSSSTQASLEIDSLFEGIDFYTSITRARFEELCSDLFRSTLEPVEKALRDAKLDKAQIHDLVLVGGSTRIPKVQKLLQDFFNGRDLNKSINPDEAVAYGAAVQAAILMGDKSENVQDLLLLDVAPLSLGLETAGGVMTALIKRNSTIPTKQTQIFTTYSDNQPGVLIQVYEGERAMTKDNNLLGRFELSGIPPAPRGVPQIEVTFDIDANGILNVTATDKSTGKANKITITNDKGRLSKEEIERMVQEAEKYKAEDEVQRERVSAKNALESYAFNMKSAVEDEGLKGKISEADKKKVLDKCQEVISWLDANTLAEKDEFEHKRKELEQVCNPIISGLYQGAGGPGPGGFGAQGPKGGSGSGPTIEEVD
UniProt O75330: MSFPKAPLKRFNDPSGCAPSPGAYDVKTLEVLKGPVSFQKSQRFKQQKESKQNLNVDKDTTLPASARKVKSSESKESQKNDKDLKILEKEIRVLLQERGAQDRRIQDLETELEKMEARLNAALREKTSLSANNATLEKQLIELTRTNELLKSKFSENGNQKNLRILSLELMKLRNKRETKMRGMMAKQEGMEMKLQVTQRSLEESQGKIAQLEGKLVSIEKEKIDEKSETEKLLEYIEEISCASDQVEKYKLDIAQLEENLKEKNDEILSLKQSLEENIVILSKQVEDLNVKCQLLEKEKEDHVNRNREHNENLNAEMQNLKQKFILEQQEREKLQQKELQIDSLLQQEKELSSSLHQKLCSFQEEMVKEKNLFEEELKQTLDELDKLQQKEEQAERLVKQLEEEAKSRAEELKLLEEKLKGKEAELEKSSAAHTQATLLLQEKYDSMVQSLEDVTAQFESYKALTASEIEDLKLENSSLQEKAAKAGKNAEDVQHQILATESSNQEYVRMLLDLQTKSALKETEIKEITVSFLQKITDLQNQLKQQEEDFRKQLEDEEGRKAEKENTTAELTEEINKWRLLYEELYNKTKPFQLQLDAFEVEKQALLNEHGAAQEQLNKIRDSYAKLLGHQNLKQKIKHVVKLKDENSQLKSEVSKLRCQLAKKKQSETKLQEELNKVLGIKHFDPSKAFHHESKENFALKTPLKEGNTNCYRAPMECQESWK
UniProt Q9BXL5: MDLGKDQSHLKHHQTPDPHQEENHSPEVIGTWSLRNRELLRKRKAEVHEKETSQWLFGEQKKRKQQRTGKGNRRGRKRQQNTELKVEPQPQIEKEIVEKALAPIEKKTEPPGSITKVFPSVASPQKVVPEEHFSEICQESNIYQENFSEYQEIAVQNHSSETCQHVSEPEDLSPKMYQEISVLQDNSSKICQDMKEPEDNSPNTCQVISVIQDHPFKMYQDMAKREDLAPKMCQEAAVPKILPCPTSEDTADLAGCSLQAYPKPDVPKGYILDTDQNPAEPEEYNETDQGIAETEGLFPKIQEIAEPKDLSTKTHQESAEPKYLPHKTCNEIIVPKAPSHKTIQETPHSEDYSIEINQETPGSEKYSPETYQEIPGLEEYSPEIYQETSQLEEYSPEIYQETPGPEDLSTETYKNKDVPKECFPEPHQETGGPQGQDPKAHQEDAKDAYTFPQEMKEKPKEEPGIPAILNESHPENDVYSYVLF

Legend:
Test in all cases: log2 fold change, soluble protein after heating vs DMSO (PISA); higher = thermal stabilisation; K562 lysate, 10 uM; active = over 0.2 and 3.5 SD of the protein, either way, in both replicates (recomputed)
[1] = compound: C1=CC=C(C=C1)[C@H](COC2=CC3=C(C=C2)NC(=O)N3)NC(=O)C4=CC=CN(C4=O)CC5=CC(=C(C=C5)F)F
Procedure, shortened: (§1)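 Thermal stability, expressed as log-two fold change relative to solvent controls, is given from duplicates. Crude K562 extract in PBS pH 7.4 with 1 mM MgCl2, at 1 mg/mL protein, was treated with 10 μM compound for 30 min and heated in aliquots for 3 min across 48°C-58°C. After pooling, adjustment to 0.5% NP-40 at 4°C and centrifugation at 21,000xg for 90 min, supernatant protein was measured by TMTpro 16plex LC-MS/MS with channel sums equalised.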

[2] = compound: CC1=C(SC2=C1C(=N[C@H](C3=NN=C(N32)C)CC(=O)N)C4=CC=C(C=C4)Cl)C
Procedure, shortened: as §1

[3] = compound: CC1=C2C(=CC=C1)N=C(N(C2=O)C3=CC=CC=C3C)CN4C=NC5=C(N=CN=C54)N
Procedure, shortened: as §1

[4] = compound: Cc1sc2c(c1C)C(c1ccc(Cl)cc1)=N[C@@H](CC(=O)OC(C)(C)C)c1nnc(C)n1-2
Procedure, shortened: as §1

[5] = compound: c1ccc([C@@H]2C[C@H]2NC2CCNCC2)cc1
Procedure, shortened: as §1

Measured: log2 fold change

HSP90AB3P (UniProt Q58FF7)
inactive: [1] -0.009 | [2] 0.063 | [3] 0.006 | [4] 0.055 | [5] 0.008

HNRNPA1 (UniProt P09651)
inactive: [1] -0.004 | [2] 0.017 | [3] 0.002 | [4] 0.081 | [5] 0.042

HK2 (UniProt P52789)
inactive: [1] -0.021 | [2] -0.016 | [3] 0.043 | [4] 0.019 | [5] 0.063

HSD17B12 (UniProt Q53GQ0)
inactive: [1] -0.127 | [2] -0.006 | [3] 0.059 | [4] 0.031 | [5] -0.108

HMGN2 (UniProt P05204)
inactive: [1] -0.004 | [2] -0.037 | [3] -0.032 | [4] -0.064 | [5] -0.034

HPS1 (UniProt Q92902)
inactive: [1] 0.019 | [2] -0.063 | [3] 0.062 | [4] -0.062 | [5] -0.042

HIRIP3 (UniProt Q9BW71)
inactive: [1] 0.013 | [2] 0.005 | [3] -0.019 | [4] 0.003 | [5] 0.023

HEBP1 (UniProt Q9NRV9)
inactive: [1] 0.168 | [2] -0.035 | [3] -0.001 | [4] 0.023 | [5] -0.037

HNRNPK isoform 3 (UniProt P61978)
inactive: [1] -0.168 | [2] 0.047 | [3] -0.034 | [4] 0.005 | [5] -0.065

HNRNPH1 (UniProt P31943)
inactive: [1] 0.038 | [2] -0.015 | [3] 0.007 | [4] 0.009 | [5] 0.017

HPRT1 (UniProt P00492)
inactive: [1] 0.03 | [2] -0.006 | [3] -0.009 | [4] 0.011 | [5] 0.048

HSBP1 (UniProt O75506)
inactive: [1] 0.018 | [2] -0.102 | [3] 0.042 | [4] -0.035 | [5] 0.183

HMCES (UniProt Q96FZ2)
inactive: [1] -0.004 | [2] -0.004 | [3] 0.005 | [4] 0.049 | [5] 0.043

HOXB9 (UniProt P17482)
inactive: [1] 0 | [2] 0.047 | [3] -0.01 | [4] 0.131 | [5] -0.03

HOOK3 (UniProt Q86VS8)
inactive: [1] 0.043 | [2] -0.02 | [3] 0.003 | [4] -0.011 | [5] 0.024

HNRNPC (UniProt P07910)
inactive: [1] -0.008 | [2] 0.062 | [3] 0.01 | [4] 0.092 | [5] 0.022

HERC4 (UniProt Q5GLZ8)
inactive: [1] 0.039 | [2] -0.001 | [3] 0.019 | [4] -0.02 | [5] -0.019

HOMEZ isoform 3 (UniProt Q8IX15)
inactive: [1] -0.008 | [2] 0.092 | [3] -0.026 | [4] 0.009 | [5] 0.013

HSPA1L (UniProt P34931)
inactive: [1] -0.032 | [2] 0.152 | [3] -0.066 | [4] -0.084 | [5] 0.006

HMGCS1 (UniProt Q01581)
inactive: [1] 0.043 | [2] -0.022 | [3] 0.02 | [4] 0.003 | [5] -0.009

HMBS (UniProt P08397)
inactive: [1] 0.011 | [2] 0.018 | [3] -0.033 | [4] 0.029 | [5] 0.031

HNRNPR (UniProt O43390)
inactive: [1] -0.017 | [2] 0.048 | [3] 0.091 | [4] 0.001 | [5] 0.04

HNRNPK isoform 2 (UniProt P61978)
inactive: [1] 0.013 | [2] 0.008 | [3] 0.002 | [4] 0.013 | [5] -0.016

HIC2 (UniProt Q96JB3)
inactive: [1] -0.039 | [2] 0.039 | [3] -0.015 | [4] 0.037 | [5] -0.031

HELQ (UniProt Q8TDG4)
inactive: [1] 0.033 | [2] 0.028 | [3] 0.005 | [4] -0.004 | [5] -0.074

HOMER1 (UniProt Q86YM7)
inactive: [1] -0.003 | [2] -0.026 | [3] -0.023 | [4] 0 | [5] 0.08

HIST2H2AA3 (UniProt Q6FI13)
inactive: [1] 0.017 | [2] 0 | [3] -0.111 | [4] 0.268 | [5] 0.277

HSPA2 (UniProt P54652)
inactive: [1] 0.037 | [2] 0.081 | [3] 0.052 | [4] -0.024 | [5] -0.142

HSP90AA1 isoform 2 (UniProt P07900)
inactive: [1] 0.002 | [2] 0.004 | [3] -0.014 | [4] 0.002 | [5] 0.037

HNRNPA1 (UniProt H0YH80)
inactive: [1] -0.214 | [2] 0.187 | [3] 0.025 | [4] -0.207 | [5] -0.116

HSF1 (UniProt Q00613)
inactive: [1] -0.032 | [2] -0.013 | [3] 0.005 | [4] 0.008 | [5] 0.07

HMGN4 (UniProt O00479)
inactive: [1] -0.137 | [2] -0.395 | [3] -0.186 | [4] 0.297 | [5] 0.513

HSCB (UniProt Q8IWL3)
inactive: [1] -0.036 | [2] 0.241 | [3] 0.045 | [4] -0.037 | [5] 0.003

HINT3 (UniProt Q9NQE9)
inactive: [1] 0.009 | [2] -0.026 | [3] 0.048 | [4] -0.005 | [5] 0.008

HSP90AB4P (UniProt Q58FF6)
inactive: [1] -0.254 | [2] 0.113 | [3] -0.024 | [4] -0.196 | [5] 0.034

HNRNPL (UniProt P14866)
inactive: [1] -0.01 | [2] -0.024 | [3] 0.04 | [4] 0.039 | [5] 0.071

HSPA13 (UniProt P48723)
inactive: [1] 0.012 | [2] 0.006 | [3] 0.009 | [4] -0.008 | [5] 0.019

HMGCL (UniProt P35914)
inactive: [1] 0.057 | [2] -0.017 | [3] 0.058 | [4] 0.046 | [5] 0.006

HNRNPA0 (UniProt Q13151)
inactive: [1] 0 | [2] 0.05 | [3] 0.013 | [4] 0.058 | [5] 0.006

HMGN1 (UniProt P05114)
inactive: [1] -0.022 | [2] 0.005 | [3] -0.047 | [4] -0.045 | [5] 0.03

HERC1 (UniProt Q15751)
inactive: [1] -0.019 | [2] -0.023 | [3] 0.028 | [4] 0.007 | [5] -0.014

HNRNPLL (UniProt Q8WVV9)
inactive: [1] 0.018 | [2] 0.028 | [3] 0.007 | [4] 0.022 | [5] 0.036

HSPA14 (UniProt Q0VDF9)
inactive: [1] 0 | [2] 0.011 | [3] -0.004 | [4] 0.025 | [5] 0.017

HECTD3 (UniProt Q5T447)
inactive: [1] -0.06 | [2] 0.038 | [3] 0.046 | [4] 0.034 | [5] 0.06

HIF1AN (UniProt Q9NWT6)
inactive: [1] 0.044 | [2] 0.017 | [3] -0.028 | [4] 0.003 | [5] -0.015

HSPA1A (UniProt P0DMV8)
inactive: [1] 0.034 | [2] -0.026 | [3] 0.007 | [4] -0.005 | [5] 0.062

HEBP2 (UniProt Q9Y5Z4)
inactive: [1] -0.07 | [2] -0.058 | [3] 0.013 | [4] 0.002 | [5] 0.039

Copied from above (two entries):
HECTD3 (UniProt Q5T447)
inactive: [1] -0.06 | [2] 0.038 | [3] 0.046 | [4] 0.034 | [5] 0.06

HIF1AN (UniProt Q9NWT6)
inactive: [1] 0.044 | [2] 0.017 | [3] -0.028 | [4] 0.003 | [5] -0.015

Additional results.

HMMR isoform 3 (UniProt O75330)
inactive: [1] -0.01 | [2] -0.001 | [3] -0.002 | [4] 0.006 | [5] -0.001

HEMGN (UniProt Q9BXL5)
inactive: [1] 0.018 | [2] -0.008 | [3] -0.02 | [4] 0.036 | [5] 0.026

HSDL2 (UniProt Q6YN16)
inactive: [1] 0.026 | [2] 0.027 | [3] 0.031 | [4] -0.009 | [5] -0.013

HIST2H3A (UniProt Q71DI3)
inactive: [1] 0.003 | [2] 0.03 | [3] -0.04 | [4] 0.185 | [5] 0.047

HECTD1 (UniProt Q9ULT8)
inactive: [1] -0.008 | [2] 0 | [3] -0.029 | [4] -0.002 | [5] -0.012
